Record: PubChem BioAssay AID1159578 (Peter MacCallum Cancer Centre, 2015)
Shown is an unselected part of about 18,000 reagents tested. In the full data, about 1,030 (5.7%) are marked active. 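Inactive calls also include pools with fewer than 3300 nuclei, whose migration was not assessed.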 The raw values are shown without normalisation. Reagent sequences are not shown.

- Aim: 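Knock-downs that alter how fast lymphatic endothelial cells migrate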 (primary screen)
- System: human lymphatic endothelial cells
- Reagent: siRNA pool against human genes, 40 nM
- Time to read-out: 48 h after transfection
- Detection: 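Cells stained with dye and imaged after a scratch; covered wound area and nuclei counted, duplicates averaged, migration set against mock wells and turned into a robust z-score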
- Direction: migration robust z-score: higher = faster migration into the scratch; migration relative to mock: higher = more scratch area covered than mock; nuclei per well: higher = more cells in the well
- Hit rule: 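Pools averaging fewer than 3300 nuclei are never called; remaining pools count as changed when migration robust z lies outside -2 to 2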
- Calls: active = migration changed; inactive = no migration change, or too few cells

gene | migration robust z-score | migration class with cell-count check | migration relative to mock | nuclei per well, duplicate mean | Call
RNF122 (ring finger protein 122) | -0.73 | migration z between -2 and 2; enough cells | 0.66 | 4592 | inactive
FAM110C (family with sequence similarity 110 member C) | 0.22 | migration z between -2 and 2; enough cells | 0.94 | 5244 | inactive
KCTD14 (potassium channel tetramerization domain containing 14) | -0.86 | migration z between -2 and 2; enough cells | 0.64 | 4723 | inactive
TAAR5 (trace amine associated receptor 5) | -0.75 | migration z between -2 and 2; enough cells | 0.66 | 5678 | inactive
TSPAN8 (tetraspanin 8) | -0.31 | migration z between -2 and 2; enough cells | 0.8 | 5262 | inactive
ZNF559 (zinc finger protein 559) | 3.19 | migration z above 2; enough cells | 1.71 | 6508 | active
ABHD17A (abhydrolase domain containing 17A, depalmitoylase) | -0.42 | migration z between -2 and 2; enough cells | 0.78 | 5302 | inactive
SLC34A3 | 0.21 | migration z between -2 and 2; enough cells | 0.84 | 6209 | inactive
TRAPPC5 (trafficking protein particle complex subunit 5) | 0.52 | migration z between -2 and 2; enough cells | 1.02 | 6931 | inactive
PRORP (protein only RNase P catalytic subunit) | -0.3 | migration z between -2 and 2; enough cells | 0.8 | 5497 | inactive
PPP6R1 (protein phosphatase 6 regulatory subunit 1) | -3.56 | migration z below -2; enough cells | -0.04 | 4812 | active
GAS2L2 (growth arrest specific 2 like 2) | -2.12 | migration z below -2; enough cells | 0.34 | 6308 | active
ATP6AP1L (ATPase H+ transporting accessory protein 1 like (pseudogene)) | -0.01 | migration z between -2 and 2; enough cells | 0.88 | 6298 | inactive
GTF3C5 (general transcription factor IIIC subunit 5) | -0.57 | migration z between -2 and 2; enough cells | 0.7 | 6396 | inactive
POFUT4 (protein O-fucosyltransferase 4) | 0.48 | migration z between -2 and 2; enough cells | 1.01 | 4860 | inactive
LRRC19 (leucine rich repeat containing 19) | -0.42 | migration z between -2 and 2; enough cells | 0.78 | 6238 | inactive
CASP14 (caspase 14) | -1.04 | migration z between -2 and 2; enough cells | 0.6 | 5360 | inactive
ELN (elastin) | -0.43 | migration z between -2 and 2; enough cells | 0.77 | 5392 | inactive
ACP2 (acid phosphatase 2, lysosomal) | -2.02 | migration z below -2; enough cells | 0.42 | 5750 | active
CHRM4 (cholinergic receptor muscarinic 4) | 1.14 | migration z between -2 and 2; enough cells | 1.02 | 7039 | inactive
CLVS2 (clavesin 2) | 0.15 | migration z between -2 and 2; enough cells | 0.92 | 6659 | inactive
ST6GALNAC1 (ST6 N-acetylgalactosaminide alpha-2,6-sialyltransferase 1) | 1.06 | migration z between -2 and 2; enough cells | 1.01 | 5827 | inactive
CEACAM16 (CEA cell adhesion molecule 16, tectorial membrane component) | -1.15 | migration z between -2 and 2; enough cells | 0.58 | 5918 | inactive
YIPF1 (Yip1 domain family member 1) | 1.5 | migration z between -2 and 2; enough cells | 1.27 | 6372 | inactive
FAM89A (family with sequence similarity 89 member A) | 0.23 | migration z between -2 and 2; enough cells | 0.94 | 6576 | inactive
OR2C3 (olfactory receptor family 2 subfamily C member 3) | -2.25 | migration z below -2; enough cells | 0.3 | 3340 | active
SNCA (synuclein alpha) | 1.07 | migration z between -2 and 2; enough cells | 1.17 | 6472 | inactive
ARHGEF5 (Rho guanine nucleotide exchange factor 5) | 1.05 | migration z between -2 and 2; enough cells | 1.16 | 5696 | inactive
C6orf136 (chromosome 6 open reading frame 136) | 0.22 | migration z between -2 and 2; enough cells | 0.94 | 5710 | inactive
GOLGA8F (golgin A8 family member F) | -1.26 | migration z between -2 and 2; enough cells | 0.56 | 5056 | inactive
MED15 (mediator complex subunit 15) | 0.81 | migration z between -2 and 2; enough cells | 1.1 | 5190 | inactive
IGLL3P (immunoglobulin lambda like polypeptide 3, pseudogene) | -0.71 | migration z between -2 and 2; enough cells | 0.7 | 5725 | inactive
IDNK (IDNK gluconokinase) | 0.19 | migration z between -2 and 2; enough cells | 0.94 | 5410 | inactive
RCAN1 (regulator of calcineurin 1) | -1.45 | migration z between -2 and 2; enough cells | 0.52 | 4394 | inactive
VARS1 (valyl-tRNA synthetase 1) | -0.21 | migration z between -2 and 2; enough cells | 0.76 | 6688 | inactive
MACF1 (microtubule actin crosslinking factor 1) | -0.98 | migration z between -2 and 2; enough cells | 0.64 | 4616 | inactive
CYB5R2 (cytochrome b5 reductase 2) | -1.68 | migration z between -2 and 2; enough cells | 0.48 | 6122 | inactive
SPSB3 (splA/ryanodine receptor domain and SOCS box containing 3) | 0.7 | migration z between -2 and 2; enough cells | 0.94 | 5214 | inactive
CA4 (carbonic anhydrase 4) | -1.74 | migration z between -2 and 2; enough cells | 0.47 | 5262 | inactive

An excerpt from above, limited to “nuclei per well, duplicate mean”:
CHRM4 (cholinergic receptor muscarinic 4) = 7039
CLVS2 (clavesin 2) = 6659
ST6GALNAC1 (ST6 N-acetylgalactosaminide alpha-2,6-sialyltransferase 1) = 5827
CEACAM16 (CEA cell adhesion molecule 16, tectorial membrane component) = 5918
YIPF1 (Yip1 domain family member 1) = 6372
FAM89A (family with sequence similarity 89 member A) = 6576
